Laboratory results as given in patent US20150086557A1, “NOVEL INTEGRIN alpha9 beta1 LIGAND AND USES THEREOF” (OSAKA UNIVERSITY, priority 2012, published 2015).
No constants are given. Whether binding was seen depends on the method and setting. For some assays here: Binding seen in cells or lysates may run through a third protein. Some binding calls cover weakened binding; strength is not graded here.

Assays:
[1] = target: C-terminal 270-kDa fragment of recombinant polydom (mouse) (UniProt A2AVA0); assay: co-precipitation from spent medium with anti-FLAG beads or Ni-NTA beads, immunoblotting
[2] = target: C-terminal 270-kDa fragment of recombinant polydom (mouse) (UniProt A2AVA0); assay: anti-FLAG affinity purification of recombinant polydom, SDS-PAGE and N-terminal sequencing

B1: N-terminal 115-kDa fragment of recombinant polydom (protein, not shown: small tags and cut ends)
chain: WTNFQPVAPSLNFSFRLFPEASPGALGRLAVPPASSEEEAAGSKVERLGRAFRSRVRRLRELSGSLELVFLVDESSSVGQTNFLNELKFVRKLLSDFPVVSTATRVAIVTFSSKNNVVARVDYISTSRAHQHKCALLSREIPAITYRGGGTYTKGAFQQAAQILRHSRENSTKVIFLITDGYSNGGDPRPIAASLRDFGVEIFTFGIWQGNIRELNDMASTPKEEHCYLLHSFEEFEALARRALHEDLPSGSFIQEDMARCSYLCEAGKDCCDRMASCKCGTHTGQFECICEKGYYGKGLQHECTACPSGTYKPEASPGGISTCIPCPDVSHTSPPGSTSPEDCVCREGYQRSGQTCEVVHCPALKPPENGFFIQNTCKNHFNAACGVRCRPGFDLVGSSIHLCQPNGLWSGTESFCRVRTCPHLRQPKHGHISCSTAEMSYNTLCLVTCNEGYRLEGSTRLTCQGNAQWDGPEPRCVERHCATFQKPKGVIISPPSCGKQPARPGMTCQLSCRQGYILSGVREVRCATSGKWSAKVQTAVCKDVEAPQISCPNDIEAKTGEQQDSANVTWQVPTAKDNSGEKVSVHVHPAFTPPYLFPIGDVAITYTATDSSGNQASCTFYIKVIDVEPPVIDWCRSPPPIQVVEKEHPASWDEPQFSDNSGAELVITSSHTQGDMFPHGETVVWYTATDPSGNNRTCDIHIVIKGSPCEVPFTPVNGDFICAQDSAGVNCSLSCKEGYDFTEGSTEKYYCAFEDGIWRPPYSTEWPDCAIKRFANHGFKSFEMLYKTTRCDDMDLFKKFSAAFETTLGNMVPSFCNDADDIDCRLEDLTKKYCIEYNYNYENGFAIGPGGWGAGNRLDYSYDHFLDVVQETPTDVGKARSSRIKRTVPLSDPKIQLIFNITASVPLPEERNDTLELENQQRLIKTLETITNRLKSTLNKEPMYSFQLASETVVADSNSLETEKAFLFCRPGSVLRGRMCVNCPLGTSYSLEHSTCESCLMGSYQDEEGQLECKLCPPRTHTEYLHSRSVSECKAQCKQGTYSSSGLETCESCPLGTYQPEFGSRSCLLCPETTTTVKRGAVDISACGVPCPVGEFSRSGLTPCYPCPRDYYQPNAGKSFCLACPFYGTTTITGATSITDCSSFSSTFSAAEESIVPL
binding [1]: binds
binding [2]: binds
